Laboratory results taken from patent publication US7879868B2 (Novartis AG, priority 2002, dated 2011).
pIC50: −log10 of the molar value.

What was measured:
Details in all cases: Homo sapiens, SAOS-2, read-out: concentration causing 50% growth inhibition, imatinib alone
Saos2pcDNA#3#2 cells = assay: Growth inhibition in vector control Saos2 cells; type: cell-based
Saos2BCRPMUT#10 cells = assay: cells
Saos2BCRP#4 cells = assay: cells

Cc1ccc(NC(=O)c2ccc(CN3CCN(C)CC3)cc2)cc1Nc1nccc(-c2cccnc2)n1 [imatinib]
pIC50 (Saos2pcDNA#3#2 cells): 5.14
pIC50 (Saos2BCRPMUT#10 cells): 5.02
pIC50 (Saos2BCRP#4 cells): 5.02
